{"sequences": {"note": "Amino acid sequences for entries named in this document (tags omitted). A change or cut given only in a name is not applied to a line headed by its entry.", "UniProt Q6GQX2": "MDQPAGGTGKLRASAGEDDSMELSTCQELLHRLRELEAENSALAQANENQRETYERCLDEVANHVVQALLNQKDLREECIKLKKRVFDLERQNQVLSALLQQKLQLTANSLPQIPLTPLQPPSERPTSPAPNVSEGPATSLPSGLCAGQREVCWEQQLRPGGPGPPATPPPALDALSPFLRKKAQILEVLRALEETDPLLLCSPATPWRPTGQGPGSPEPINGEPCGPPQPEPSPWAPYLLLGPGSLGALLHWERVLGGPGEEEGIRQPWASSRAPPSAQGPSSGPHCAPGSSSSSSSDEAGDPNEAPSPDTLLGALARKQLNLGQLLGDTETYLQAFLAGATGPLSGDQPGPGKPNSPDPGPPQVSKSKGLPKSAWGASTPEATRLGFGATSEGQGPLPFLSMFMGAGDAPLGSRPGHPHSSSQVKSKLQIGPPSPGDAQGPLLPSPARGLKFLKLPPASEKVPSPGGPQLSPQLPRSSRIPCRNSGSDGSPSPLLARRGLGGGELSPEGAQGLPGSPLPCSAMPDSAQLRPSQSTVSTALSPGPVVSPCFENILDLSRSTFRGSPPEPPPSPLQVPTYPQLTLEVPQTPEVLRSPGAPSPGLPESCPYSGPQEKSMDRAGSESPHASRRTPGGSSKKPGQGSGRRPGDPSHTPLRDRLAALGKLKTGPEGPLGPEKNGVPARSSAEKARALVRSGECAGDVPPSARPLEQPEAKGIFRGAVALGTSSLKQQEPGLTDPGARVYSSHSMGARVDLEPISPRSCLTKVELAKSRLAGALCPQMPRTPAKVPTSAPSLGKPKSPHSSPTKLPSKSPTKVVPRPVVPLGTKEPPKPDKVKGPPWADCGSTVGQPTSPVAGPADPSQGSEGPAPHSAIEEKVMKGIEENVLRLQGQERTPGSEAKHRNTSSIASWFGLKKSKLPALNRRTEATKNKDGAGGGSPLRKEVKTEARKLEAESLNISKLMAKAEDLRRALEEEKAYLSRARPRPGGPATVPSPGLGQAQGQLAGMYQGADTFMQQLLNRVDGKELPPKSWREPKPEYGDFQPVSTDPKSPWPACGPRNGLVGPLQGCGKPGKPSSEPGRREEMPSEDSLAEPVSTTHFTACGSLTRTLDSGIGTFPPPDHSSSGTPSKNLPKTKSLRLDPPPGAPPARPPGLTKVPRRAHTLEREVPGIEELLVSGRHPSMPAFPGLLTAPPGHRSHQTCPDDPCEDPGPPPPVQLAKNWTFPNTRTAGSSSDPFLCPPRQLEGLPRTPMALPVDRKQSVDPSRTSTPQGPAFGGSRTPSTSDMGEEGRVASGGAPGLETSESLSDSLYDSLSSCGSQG"}, "source": "paper PMC4613824", "target": "T1, CM1 domain of human CDK5RAP2 (58-196) (human) (UniProt Q96SN8)", "T1 sequence": "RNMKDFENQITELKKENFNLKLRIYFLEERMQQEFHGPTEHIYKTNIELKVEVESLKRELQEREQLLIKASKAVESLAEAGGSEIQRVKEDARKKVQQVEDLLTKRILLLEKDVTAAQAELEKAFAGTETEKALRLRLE", "assay": "two-hybrid; CM1 (58-196) of CDK5RAP2 fused to the GAL4 DNA-binding domain (pGBKT7) as bait; mouse embryo cDNA two-hybrid library as prey", "note": "No constants are given. Whether binding was seen depends on the method and setting. Binding calls can cover weak binding; strength is not graded here."}
{"substance": "amino-terminal region of NCKAP5L (two-hybrid prey) (from UniProt Q6GQX2) (domain or fragment)", "values": [{"measurement": "binding", "value": "binds"}]}
